Test results: PubChem BioAssay AID342 (DTP/NCI, 2004)
The list does not hold the whole screen: it gathers some chemical classes. Other doses and runs of a compound may be missing. T/C is the treated group as % of the vehicle group. Some entries show no survivor count and are marked so; the dose need not have been tolerated. Schedule codes are those of the source, taken here to give the interval after Q, in days (D) or hours (H), and the number of doses after X. Some schedules carry Z or #; the key to these is not given.

System: Swiss mice, Sarcoma 180 sc, mean tumor weight T/C
Assay: NCI In Vivo Anticancer Drug Screen. Data for tumor model Sarcoma 180 (subcutaneous) in Swiss mice
Settings: T/C endpoint: mean tumor weight, vehicle: carboxymethylcellulose (CMC), evaluation day not shown, higher T/C = larger tumour
Experimental: The antitumor activity of compounds was measured in mice bearing transplantable tumors. Survival or tumor size were measured and the results are expressed as the measurement made in the treated group (T) divided by the measurement made in the vehicle treated control group (C). The tumor model used in this assay is Sarcoma 180 (subcutaneous) in Swiss mice

Row | Structure (SMILES) | T/C (dose: 63.0 mg/kg/injection, schedule: Q01DX007 (ip)) | T/C (dose: 125.0 mg/kg/injection, schedule: Q01DX007 (ip)) | T/C (dose: 250.0 mg/kg/injection, schedule: Q01DX007 (ip)) | T/C (dose: 500.0 mg/kg/injection, schedule: Q01DX007 (ip)) | T/C (dose: 1.25 mg/kg/injection, schedule: Q#A X014 (ip)) | T/C (dose: 2.5 mg/kg/injection, schedule: Q#A X014 (ip))
1 | Oc1c(SCCCl)c(SCCCl)c(O)c(SCCCl)c1SCCCl | 95 % of control [survivor count not shown] | 111 % of control [survivor count not shown] | 70 % of control [survivor count not shown] | 84 % of control [survivor count not shown] |  | 
2 | NC(Cc1cccc(N(CCCl)CCCl)c1)C(=O)O (stereo unspecified) |  |  |  |  | 64 % of control [survivor count not shown] | 26 % of control [survivor count not shown]
